This experiment is described as follows: qHTS Assay for Lipid Storage Modulators in Drosophila S3 Cells.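 On cell number change: cells counted by Cell Tracker Red CMTPX staining in the red channel.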 To be noted: BODIPY lipid droplet fluorescence, 18-24 h; for cell number change: measured here: cell count max response, cells fed with added oleic acid. In outline:
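Drosophila S3 cells loaded with oleic acid (400 uM, as added) and compounds at several concentrations; lipid droplets imaged by 488-nm laser-scanning cytometry, 500–530 nm intensity and object ratio to cell channel. Percent activity normalized to 20 uM Triacsin C.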

Where [1] appears, read: measured here: lipid fluorescence (Fed channel) AC50, cells fed with added oleic acid.
The mark [2] stands for this setting: measured here: cell number channel AC50, cells fed with added oleic acid.

16 compounds from PubChem BioAssay AID2685 (National Center for Advancing Translational Sciences (NCATS), 2010) can be followed below.

The other results are listed elsewhere or left out. The main result of the screen is listed elsewhere. These columns were measured beside it and carry no call. Most of these compounds were active or inconclusive in the main read-out, so they are no random draw. Words in brackets tell the shape of the fitted curve; partial curves, single points and poor fits give uncertain potencies.

With `CCOc1cc(C2C3=C(CC(C)(C)CC3=O)N(CCOC)C3=C2C(=O)CC(C)(C)C3)ccc1O`, the cell number change was -2.55%.

On to `Cc1cccc(NC(=O)Cn2c(=O)n(Cc3ccccc3)c(=O)c3c(C)c(C)sc32)c1`, for which the cell number change is -7.67%. Further, under setting [1], the AC50 (usually the midpoint of the concentration-response curve, whichever way the signal moves) is 32.6 µM [falling, single point].

Take `Cc1nnc(SCc2ccc(Cl)cc2)nc1/C=C/N(C)C`: the cell number change stood at 16.2%. For the same compound, the AC50 under setting [2] is 0.00517 µM [rising, full curve, poor fit]. Besides, the AC50 under setting [1] is 0.058 µM [rising, full curve, poor fit].

For the compound `COc1cc(S(=O)(=O)NCCCN2CCOCC2)ccc1-n1cnnn1`, the cell number change is -40.7%. For the same compound, the AC50 under setting [2] was 29.1 µM [falling, single point]. In addition, under setting [1], the half-maximal activity concentration (AC50) is 18.4 µM [falling, single point].

As to `Cc1cc(C(C)(C)C)oc1C(=O)N(CC(=O)NC1CCCC1)Cc1ccc(F)cc1`, the AC50 was 2.59 µM [falling, single point] under setting [2] and 5.8 µM [falling, single point] under setting [1].

`O=C(OCc1ccccc1)c1cn(-c2ccccc2)nc1-c1ccncc1`: the cell number change is -13.1%.

`O=C(COC(=O)c1ccccc1Br)NCc1ccccc1`: the AC50 under setting [1] is 14.6 µM [rising, partial curve, poor fit].

With `CC(C(=O)N1CCCC1)c1ccc([N+](=O)[O-])cc1` (stereo not drawn), the cell number change came out at 14.7%. In addition, under setting [1], the AC50 is 6.51 µM [falling, single point].

As for `CC(=O)c1cccc(S(=O)(=O)NCC(c2ccco2)N2CCCCC2)c1` (stereo not drawn), the cell number change worked out at 33.1%. Also, the AC50 under setting [2] was 23.1 µM [rising, partial curve]. The AC50 under setting [1] is 0.517 µM [rising, full curve, poor fit].

Consider `Cc1[nH]nc(N2CCCCC2)c1[N+](=O)[O-]`, for which the cell number change turned out to be 9.95%. In addition, the AC50 under setting [1] was 6.51 µM [rising, single point].

On to `COc1ccc(S(=O)(=O)N2CCN(C(=O)C3CCCCC3)CC2)cc1`, for which the cell number change is -1.32%. Besides, under setting [1], the AC50 is 1.26 µM [falling, partial curve].

For `O=C(CCCN1C(=O)/C(=C/c2ccccc2Cl)SC1=S)NNC(=O)c1cccnc1`, the cell number change worked out at 11%. Besides, the AC50 under setting [1] was 29.1 µM [rising, single point].

As for `O=C(CSc1nnc(CNC(=O)c2c(F)cccc2F)o1)NCc1ccccc1`, the cell number change is -40.8%. The AC50 under setting [2] is 10 µM [falling, partial curve]. In addition, under setting [1], the AC50 is 12.6 µM [falling, partial curve].

For the compound `Cc1ccc(S(=O)(=O)N2CN(CC3CCCO3)c3nc4ccccc4nc32)c(C)c1` (stereo not drawn), the cell number change was -8.85%.

For the compound `Oc1ccc(N=Cc2cc(Br)c(N3CCOCC3)o2)cc1`, the cell number change was 54.8%. In addition, under setting [2], the AC50 was 23.1 µM [rising, single point]. Under setting [1], the AC50 was 29.1 µM [rising, partial curve].

For the compound `COc1ccc(NC(=O)CSc2nnc(CNC(=O)COc3ccc(Cl)cc3)o2)cc1`, the cell number change is -13.7%. Moreover, the AC50 under setting [1] is 0.82 µM [falling, full curve, poor fit].
